Source: patent US9273140B2, “Antibody for detecting DNA damage in cells utilizing cell membrane surface antigen Ly6D” (FUJITA HEALTH UNIVERSITY, priority 2012, dated 2016)
For at least one compound, name, drawing or mass did not settle the structure.

Test system: LY6D expression in MCF10A cells
Assay: LY6D expression after X-ray irradiation in MCF10A cells pre-incubated with ATM/ATR inhibitor, by FCM
Type: cell-based
Conditions: caffeine 1 mM or wortmannin 1 μM before X-ray irradiation, 24 hours after, FIG. 5A

COC[C@H]1OC(=O)c2coc3c2[C@@]1(C)C1=C(C3=O)[C@@H]2CCC(=O)[C@@]2(C)C[C@H]1OC(C)=O [wortmannin]
elevated expression level of LY6D induced by irradiation: The same phenomenon was observed
